In publication PMC8241057:
No constants are given. Whether binding was seen depends on the method and setting. Some results given as binding are weak or reduced against the parent protein; the word gives no strength.

Amino acid sequences for entries named in this document (tags omitted). Residues count along the entry.
UniProt P54761, residues 16-987: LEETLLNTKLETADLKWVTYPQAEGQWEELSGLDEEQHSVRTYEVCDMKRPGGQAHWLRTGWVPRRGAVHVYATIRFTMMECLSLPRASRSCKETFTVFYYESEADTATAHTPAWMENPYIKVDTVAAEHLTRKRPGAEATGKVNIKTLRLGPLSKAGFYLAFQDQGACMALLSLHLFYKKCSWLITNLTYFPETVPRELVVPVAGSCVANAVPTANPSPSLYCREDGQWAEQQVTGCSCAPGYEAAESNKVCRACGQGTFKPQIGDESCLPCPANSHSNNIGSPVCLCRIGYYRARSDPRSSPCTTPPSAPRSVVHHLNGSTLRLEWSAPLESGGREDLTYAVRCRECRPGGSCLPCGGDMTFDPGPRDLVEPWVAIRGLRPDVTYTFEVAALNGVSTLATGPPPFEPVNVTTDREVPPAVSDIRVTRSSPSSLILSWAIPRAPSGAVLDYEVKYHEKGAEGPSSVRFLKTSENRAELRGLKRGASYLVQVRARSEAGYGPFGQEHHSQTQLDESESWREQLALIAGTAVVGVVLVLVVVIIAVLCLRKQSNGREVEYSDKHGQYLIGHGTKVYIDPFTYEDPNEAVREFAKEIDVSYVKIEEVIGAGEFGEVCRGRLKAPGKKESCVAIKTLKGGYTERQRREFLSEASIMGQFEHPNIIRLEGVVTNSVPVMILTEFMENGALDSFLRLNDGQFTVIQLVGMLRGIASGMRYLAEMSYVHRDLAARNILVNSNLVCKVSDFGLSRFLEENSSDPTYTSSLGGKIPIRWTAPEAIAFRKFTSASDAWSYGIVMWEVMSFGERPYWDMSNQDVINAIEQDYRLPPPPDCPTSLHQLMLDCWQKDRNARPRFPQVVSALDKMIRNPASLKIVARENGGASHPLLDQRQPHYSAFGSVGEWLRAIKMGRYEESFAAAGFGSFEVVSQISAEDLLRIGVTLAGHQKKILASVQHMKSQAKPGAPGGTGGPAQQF
UniProt P54760, residues 16-987: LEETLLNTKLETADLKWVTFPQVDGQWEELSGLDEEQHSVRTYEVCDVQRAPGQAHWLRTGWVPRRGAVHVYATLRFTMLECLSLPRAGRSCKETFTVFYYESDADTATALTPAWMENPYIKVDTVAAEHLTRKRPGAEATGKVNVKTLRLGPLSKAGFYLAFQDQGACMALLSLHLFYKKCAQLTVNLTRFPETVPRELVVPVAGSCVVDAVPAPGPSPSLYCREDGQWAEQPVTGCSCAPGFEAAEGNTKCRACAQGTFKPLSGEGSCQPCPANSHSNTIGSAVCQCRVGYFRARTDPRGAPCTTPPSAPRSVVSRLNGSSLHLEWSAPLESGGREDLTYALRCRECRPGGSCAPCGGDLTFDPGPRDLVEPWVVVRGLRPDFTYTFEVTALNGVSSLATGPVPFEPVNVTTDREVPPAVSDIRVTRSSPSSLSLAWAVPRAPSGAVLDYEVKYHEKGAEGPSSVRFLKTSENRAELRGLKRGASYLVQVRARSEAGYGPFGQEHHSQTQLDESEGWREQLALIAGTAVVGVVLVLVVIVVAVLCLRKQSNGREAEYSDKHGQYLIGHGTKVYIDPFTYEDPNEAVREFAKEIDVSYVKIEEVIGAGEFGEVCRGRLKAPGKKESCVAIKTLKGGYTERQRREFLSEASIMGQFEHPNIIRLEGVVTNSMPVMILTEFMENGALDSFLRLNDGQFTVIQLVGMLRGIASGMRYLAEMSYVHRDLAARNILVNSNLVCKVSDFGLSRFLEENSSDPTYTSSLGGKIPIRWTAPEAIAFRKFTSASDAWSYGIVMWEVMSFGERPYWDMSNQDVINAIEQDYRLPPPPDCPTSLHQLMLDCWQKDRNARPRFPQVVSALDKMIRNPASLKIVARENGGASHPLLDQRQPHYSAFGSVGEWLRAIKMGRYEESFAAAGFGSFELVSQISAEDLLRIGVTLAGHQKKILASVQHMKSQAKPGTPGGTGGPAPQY

Tests used:
[1] = target: EphB4 receptor on CT26 cells (mouse (endogenous in CT26)) (UniProt P54761); assay: confocal microscopy of cellular uptake; co-cultured SKOV3/A549 or CT26/NCM460 cells incubated 1 h in growth medium with RITC-labelled HP-TCS micelles (40 ug/mL polymer), with or without free TNYL (100:1 mol:mol over TNYL of the micelles); washed with PBS three times; only the binder purified
[2] = target: EphB4 receptor on SKOV3 cells (human (endogenous in SKOV3)) (UniProt P54760); assay: as above

binding [1]: binds
binding [2]: binds
B1: TNYL peptide conjugated onto the surface of CSO-SA micelles loaded with HAuNS and PTX (HP-TCS) (peptide)
peptide: TNYLFSPNGPIARAW
modifications: conjugated onto the surface of CSO-SA micelles
